Source: the supplement of paper PMC4604168 (melanoma cell lines)
The list shows a part of the results. Single values are uncertain, as repeats are few or missing.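 The apoptosis fraction was the count of cleaved-PARP antibody-stained nuclei relative to all DNA-stained nuclei, imaged in 1,536-well plates. Screening doses were set so most cells survived, and baseline and induced cleaved-PARP levels vary greatly across cell lines.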

These molecules were tested on CBRC016 (line from a melanoma biopsy) (assay: cleaved PARP positive nuclei fraction relative to DMSO control; melanoma cells; higher = more apoptosis). Conditions: library dose: low library concentration; 72 h.

SMILES | cleaved PARP positive nuclei fraction [%]
C[C@@H](N)c1ccc(C(=O)Nc2ccnc3[nH]ccc23)cc1 + COC(=O)c1sccc1S(=O)(=O)Nc1ccc(Nc2ccccc2)cc1OC [GSK0660] (first compound 0.4 µM, partner dose 1 µM) | 67
CCCCCCCCc1ccc(CCC(N)(CO)CO)cc1 [fingolimod] + COc1ccc(-c2ccc3c(N4CCOCC4)nc(N4C[C@@H](C)O[C@@H](C)C4)nc3n2)cc1CO [KU0063794] (first compound 2 µM, partner dose 0.02 µM) | 45.9
CCCCCCCCc1ccc(CCC(N)(CO)CO)cc1 [fingolimod] + N#Cc1c(O)c2c(-c3ccc(-c4ccccc4O)cc3)csc2[nH]c1=O [A769662] (first compound 2 µM, partner dose 2 µM) | 16.4

These molecules were tested on CBRC017 (line from a melanoma biopsy) in the same assay as above. Conditions: library dose: low library concentration; 72 h.

SMILES | cleaved PARP positive nuclei fraction [%]
CC(=O)O[C@@]12CO[C@@H]1C[C@H](O)[C@@]1(C)C(=O)[C@H](O)C3=C(C)[C@@H](OC(=O)[C@H](O)[C@@H](NC(=O)OC(C)(C)C)c4ccccc4)C[C@@](O)([C@@H](OC(=O)c4ccccc4)[C@H]21)C3(C)C [Docetaxel] + CCCCCCCCCCCC1=C(O)C(=O)C=C(O)C1=O [Embelin] (first compound 0.0001 µM, partner dose 1.2 µM) | 129
NC1(c2ccc(-c3nc4ccn5c(=O)[nH]nc5c4cc3-c3ccccc3)cc2)CCC1 + CC(C)CCN1c2nc(Nc3cc(F)c(O)c(F)c3)ncc2N(C)C(=O)C1C [BID1870] (first compound 0.4 µM, partner dose 0.2 µM) | 194
CS(=O)(=O)c1ccc(C(=O)Nc2ccc(Cl)c(-c3ccccn3)c2)c(Cl)c1 [vismodegib] + CCCCCCCCCCCC1=C(O)C(=O)C=C(O)C1=O [Embelin] (first compound 1 µM, partner dose 1.2 µM) | 93
COc1ccc(C2=N[C@@H](c3ccc(Cl)cc3)[C@@H](c3ccc(Cl)cc3)N2C(=O)N2CCNC(=O)C2)c(OC(C)C)c1 [Nutlin-3] + COc1ccc(-c2ccc3c(N4CCOCC4)nc(N4C[C@@H](C)O[C@@H](C)C4)nc3n2)cc1CO [KU0063794] (first compound 0.1 µM, partner dose 0.02 µM) | 80.6
Cn1cnc2c(F)c(Nc3ccc(Br)cc3Cl)c(C(=O)NOCCO)cc21 [selumetinib] + CC(C)CCN1c2nc(Nc3cc(F)c(O)c(F)c3)ncc2N(C)C(=O)C1C [BID1870] (first compound 0.015 µM, partner dose 0.2 µM) | 102
CC1(C)CCC(c2ccc(Cl)cc2)=C(CN2CCN(c3ccc(C(=O)NS(=O)(=O)c4ccc(N[C@H](CCN5CCOCC5)CSc5ccccc5)c(S(=O)(=O)C(F)(F)F)c4)cc3)CC2)C1 + Cc1cc([N+](=O)[O-])ccc1NS(=O)(=O)c1cc(Cl)ccc1Cl [FH535] (first compound 0.4 µM, partner dose 1 µM) | 476
CCN(CC)CCNC(=O)c1c(C)[nH]c(/C=C2\C(=O)Nc3ccc(F)cc32)c1C [sunitinib] + Cc1cc([N+](=O)[O-])ccc1NS(=O)(=O)c1cc(Cl)ccc1Cl [FH535] (first compound 0.4 µM, partner dose 1 µM) | 196
Cn1sc(=O)n(Cc2ccccc2)c1=O + COc1cc2ncnc(Nc3ccc(Oc4ccccc4)cc3)c2cc1OC [SrcI1] (first compound 0.4 µM, partner dose 2 µM) | 108
NC1(c2ccc(-c3nc4ccn5c(=O)[nH]nc5c4cc3-c3ccccc3)cc2)CCC1 + COC(=O)c1sccc1S(=O)(=O)Nc1ccc(Nc2ccccc2)cc1OC [GSK0660] (first compound 0.4 µM, partner dose 1 µM) | 74.2
CN(c1ncccc1CNc1nc(Nc2ccc3c(c2)CC(=O)N3)ncc1C(F)(F)F)S(C)(=O)=O + CC(C)CCN1c2nc(Nc3cc(F)c(O)c(F)c3)ncc2N(C)C(=O)C1C [BID1870] (first compound 0.08 µM, partner dose 0.2 µM) | 118
Cn1sc(=O)n(Cc2ccccc2)c1=O + O=C(Nc1ccccc1)c1cc([N+](=O)[O-])ccc1Cl [GW9662] (first compound 0.4 µM, partner dose 2 µM) | 77.3
NC(=O)c1ccc(N(C(N)=O)c2c(F)cccc2F)nc1-c1ccc(F)cc1F + Cn1cc(/C=C2\C(=O)Nc3cccnc32)c2ccccc21 [GW441756] (first compound 0.4 µM, partner dose 0.4 µM) | 105
CCN(CC)CCNC(=O)c1c(C)[nH]c(/C=C2\C(=O)Nc3ccc(F)cc32)c1C [sunitinib] + COC(=O)c1sccc1S(=O)(=O)Nc1ccc(Nc2ccccc2)cc1OC [GSK0660] (first compound 0.4 µM, partner dose 1 µM) | 78.5
Cn1sc(=O)n(Cc2ccccc2)c1=O + CC(C)CCN1c2nc(Nc3cc(F)c(O)c(F)c3)ncc2N(C)C(=O)C1C [BID1870] (first compound 0.4 µM, partner dose 0.2 µM) | 73.6
Cn1sc(=O)n(Cc2ccccc2)c1=O + COc1cc(N2CCC(N3CCN(C)CC3)CC2)ccc1Nc1ncc(Cl)c(Nc2ccccc2S(=O)(=O)C(C)C)n1 [NVP-TAE684] (first compound 0.4 µM, partner dose 0.08 µM) | 59.1
NC1(c2ccc(-c3nc4ccn5c(=O)[nH]nc5c4cc3-c3ccccc3)cc2)CCC1 + CCc1ccc(CCOc2ccc(CC3SC(=O)NC3=O)cc2)nc1 [pioglitazone] (first compound 0.4 µM, partner dose 2 µM) | 93.2
NC(=O)c1ccc(N(C(N)=O)c2c(F)cccc2F)nc1-c1ccc(F)cc1F + COc1cc(N2CCC(N3CCN(C)CC3)CC2)ccc1Nc1ncc(Cl)c(Nc2ccccc2S(=O)(=O)C(C)C)n1 [NVP-TAE684] (first compound 0.4 µM, partner dose 0.08 µM) | 80.8
NC1(c2ccc(-c3nc4ccn5c(=O)[nH]nc5c4cc3-c3ccccc3)cc2)CCC1 + Cc1cc([N+](=O)[O-])ccc1NS(=O)(=O)c1cc(Cl)ccc1Cl [FH535] (first compound 0.4 µM, partner dose 1 µM) | 566
Cn1cnc2c(F)c(Nc3ccc(Br)cc3Cl)c(C(=O)NOCCO)cc21 [selumetinib] + Cn1cc(/C=C2\C(=O)Nc3cccnc32)c2ccccc21 [GW441756] (first compound 0.015 µM, partner dose 0.4 µM) | 108
CC(=O)O[C@@]12CO[C@@H]1C[C@H](O)[C@@]1(C)C(=O)[C@H](O)C3=C(C)[C@@H](OC(=O)[C@H](O)[C@@H](NC(=O)OC(C)(C)C)c4ccccc4)C[C@@](O)([C@@H](OC(=O)c4ccccc4)[C@H]21)C3(C)C [Docetaxel] + COc1ccc2c(c1)CCC1C2CCC2(C)C(NCCCCCCN3C(=O)C=CC3=O)CCC12 [U73122] (first compound 0.0001 µM, partner dose 0.4 µM) | 163
CN(c1ncccc1CNc1nc(Nc2ccc3c(c2)CC(=O)N3)ncc1C(F)(F)F)S(C)(=O)=O + Oc1cc(-c2nc(-c3ccccc3)[nH]c2-c2ccncc2)ccc1Cl [L779450] (first compound 0.08 µM, partner dose 0.2 µM) | 77.9
CCN(CC)CCNC(=O)c1c(C)[nH]c(/C=C2\C(=O)Nc3ccc(F)cc32)c1C [sunitinib] + O=c1cc(-c2cccc3c2Sc2ccccc2S3)oc(N2CCOCC2)c1 [KU55933] (first compound 0.4 µM, partner dose 1 µM) | 67.1
CC1(C)CCC(c2ccc(Cl)cc2)=C(CN2CCN(c3ccc(C(=O)NS(=O)(=O)c4ccc(N[C@H](CCN5CCOCC5)CSc5ccccc5)c(S(=O)(=O)C(F)(F)F)c4)cc3)CC2)C1 + COC(=O)c1sccc1S(=O)(=O)Nc1ccc(Nc2ccccc2)cc1OC [GSK0660] (first compound 0.4 µM, partner dose 1 µM) | 530
COc1ccc(C2=N[C@@H](c3ccc(Cl)cc3)[C@@H](c3ccc(Cl)cc3)N2C(=O)N2CCNC(=O)C2)c(OC(C)C)c1 [Nutlin-3] + COc1ccc(COc2ccc(Cc3cnc(N)nc3N)cc2OC)cc1 [GW2580] (first compound 0.1 µM, partner dose 1 µM) | 186
Cn1cnc2c(F)c(Nc3ccc(Br)cc3Cl)c(C(=O)NOCCO)cc21 [selumetinib] + COc1ccc2c(c1)CCC1C2CCC2(C)C(NCCCCCCN3C(=O)C=CC3=O)CCC12 [U73122] (first compound 0.015 µM, partner dose 0.4 µM) | 160
CC(=O)O[C@@]12CO[C@@H]1C[C@H](O)[C@@]1(C)C(=O)[C@H](O)C3=C(C)[C@@H](OC(=O)[C@H](O)[C@@H](NC(=O)OC(C)(C)C)c4ccccc4)C[C@@](O)([C@@H](OC(=O)c4ccccc4)[C@H]21)C3(C)C [Docetaxel] + Cn1cc(/C=C2\C(=O)Nc3cccnc32)c2ccccc21 [GW441756] (first compound 0.0001 µM, partner dose 0.4 µM) | 115
NC(=O)c1ccc(N(C(N)=O)c2c(F)cccc2F)nc1-c1ccc(F)cc1F + O=C(Nc1ccccc1)c1cc([N+](=O)[O-])ccc1Cl [GW9662] (first compound 0.4 µM, partner dose 2 µM) | 111
CC1(C)CCC(c2ccc(Cl)cc2)=C(CN2CCN(c3ccc(C(=O)NS(=O)(=O)c4ccc(N[C@H](CCN5CCOCC5)CSc5ccccc5)c(S(=O)(=O)C(F)(F)F)c4)cc3)CC2)C1 + O=C(Nc1ccccc1)c1cc([N+](=O)[O-])ccc1Cl [GW9662] (first compound 0.4 µM, partner dose 2 µM) | 423

Looked up above:
NC1(c2ccc(-c3nc4ccn5c(=O)[nH]nc5c4cc3-c3ccccc3)cc2)CCC1 + CC(C)CCN1c2nc(Nc3cc(F)c(O)c(F)c3)ncc2N(C)C(=O)C1C [BID1870] (first compound 0.4 µM, partner dose 0.2 µM) – cleaved PARP positive nuclei fraction [%]: 194
CC1(C)CCC(c2ccc(Cl)cc2)=C(CN2CCN(c3ccc(C(=O)NS(=O)(=O)c4ccc(N[C@H](CCN5CCOCC5)CSc5ccccc5)c(S(=O)(=O)C(F)(F)F)c4)cc3)CC2)C1 + COC(=O)c1sccc1S(=O)(=O)Nc1ccc(Nc2ccccc2)cc1OC [GSK0660] (first compound 0.4 µM, partner dose 1 µM) – cleaved PARP positive nuclei fraction [%]: 530
